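Human melanoma cell lines in 1,536-well plates were treated with two drugs together for 72 h, then fixed, stained and imaged. The read-out is cell count (nuclei) in % of the DMSO control; lower values mean stronger growth inhibition or killing. Concentrations were fixed for each drug; these are the lower of two levels, a fifth of the higher. These are primary screening values without error estimates.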
An unselected part of the screen is shown.
An entry leaves out what has no value listed here.
A dash means that no value is listed here.

Drug key:
KU-0063794 (0.02 µM): COc1ccc(-c2ccc3c(N4CCOCC4)nc(N4C[C@@H](C)O[C@@H](C)C4)nc3n2)cc1CO
OSU-03012 (1 µM): NCC(=O)Nc1ccc(-n2nc(C(F)(F)F)cc2-c2ccc3c(ccc4ccccc43)c2)cc1
GSK0660 (1 µM): COC(=O)c1sccc1S(=O)(=O)Nc1ccc(Nc2ccccc2)cc1OC
ENMD-2076 (0.04 µM): Cc1cc(Nc2cc(N3CCN(C)CC3)nc(/C=C/c3ccccc3)n2)n[nH]1
OSI-906 (0.4 µM): C[C@]1(O)C[C@@H](c2nc(-c3ccc4ccc(-c5ccccc5)nc4c3)c3c(N)nccn32)C1
GW441756 (0.4 µM): Cn1cc(/C=C2\C(=O)Nc3cccnc32)c2ccccc21
U73122 (0.4 µM): COc1ccc2c(c1)CCC1C2CCC2(C)C(NCCCCCCN3C(=O)C=CC3=O)CCC12 (centres undefined)
nilutamide (1 µM): CC1(C)NC(=O)N(c2ccc([N+](=O)[O-])c(C(F)(F)F)c2)C1=O
TCS401 (1.67 µM): O=C(O)C(=O)Nc1sc2c(c1C(=O)O)CCNC2
GW0742 (2 µM): Cc1cc(SCc2sc(-c3ccc(C(F)(F)F)c(F)c3)nc2C)ccc1OCC(=O)O
STA-4783 (0.006 µM): CN(NC(=O)CC(=O)NN(C)C(=S)c1ccccc1)C(=S)c1ccccc1

Results for OSU-03012 and ENMD-2076 are A101D: 100; MEL-HO: 94.6; IPC-298: 90.7; LOX IMVI: 35.3; A2058: 110; COLO 800: 57.6; G-361: 110. For GW0742 and KU-0063794 the values were A101D: 84.3; MEL-HO: 105; IPC-298: 93.1; LOX IMVI: 66.4; A2058: 101; COLO 800: 92.1; 501mel: 99.1; G-361: 99.5. Results for STA-4783 and GW0742 are A101D: 82.3; MEL-HO: 107; IPC-298: 111; LOX IMVI: 123; A2058: 98.0; COLO 800: 71.3; 501mel: 111; G-361: 110. For OSU-03012 and U73122 the values were A101D: 93.3; MEL-HO: 99.4; IPC-298: 74.8; LOX IMVI: 98.0; A2058: 99.4; COLO 800: 56.5; 501mel: 40.5; G-361: 92.6.

OSU-03012 and GW0742 gave A101D: 125; MEL-HO: 83.7; IPC-298: 80.9; LOX IMVI: 79.7; A2058: 109; COLO 800: 81.6; 501mel: 41.2; G-361: 97.4. Results for OSU-03012 and KU-0063794 are A101D: 109; MEL-HO: 109; IPC-298: 78.2; LOX IMVI: 123; A2058: 105; COLO 800: 96.8; 501mel: 56.9; G-361: 113. U73122 and nilutamide gave A101D: 93.4; MEL-HO: 97.9; IPC-298: 98.2; LOX IMVI: 82.3; A2058: 98.3; COLO 800: 98.6; 501mel: 99.8; G-361: 104. Results for TCS401 and nilutamide are A101D: 102; MEL-HO: 95.0; IPC-298: 93.7; LOX IMVI: 95.7; A2058: 94.3; COLO 800: 97.3; 501mel: 109; G-361: 97.8.

For nilutamide and KU-0063794 the values were A101D: 110; MEL-HO: 116; IPC-298: 99.9; LOX IMVI: 104; A2058: 103; COLO 800: 69.5; 501mel: 123; G-361: 97.6. TCS401 and STA-4783 gave A101D: 85.9; MEL-HO: 83.6; IPC-298: 97.3; LOX IMVI: 61.3; A2058: 68.9; COLO 800: 32.9; 501mel: 56.2; G-361: 82.8. With OSI-906 and GSK0660 the screen read A101D: 101; MEL-HO: 92.7; IPC-298: 95.7; LOX IMVI: 118; A2058: 90.5; COLO 800: 74.6; 501mel: 99.8; G-361: 84.0. With ENMD-2076 and U73122 the screen read A101D: 83.5; MEL-HO: 82.3; IPC-298: 100; LOX IMVI: 94.9; A2058: 80.9; COLO 800: 111; 501mel: 87.0; G-361: 103.

Results for GW441756 and nilutamide are A101D: 95.6; MEL-HO: 108; IPC-298: 102; LOX IMVI: 113; A2058: 100; COLO 800: 94.2; 501mel: 101; G-361: 109. ENMD-2076 and nilutamide gave A101D: 105; MEL-HO: 105; IPC-298: 98.0; LOX IMVI: 108; A2058: 105; COLO 800: 70.9; G-361: 105. For ENMD-2076 and GSK0660 the values were A101D: 97.5; MEL-HO: 100; IPC-298: 95.6; LOX IMVI: 67.1; A2058: 109; COLO 800: 142; 501mel: 96.0; G-361: 91.2. With U73122 and STA-4783 the screen read A101D: 89.4; MEL-HO: 102; IPC-298: 103; LOX IMVI: 110; A2058: 102; COLO 800: 86.8; 501mel: 104; G-361: 112.

With GW441756 and ENMD-2076 the screen read A101D: 92.5; MEL-HO: 95.0; IPC-298: 95.9; LOX IMVI: 89.3; A2058: 108; COLO 800: 127; 501mel: 98.5; G-361: 101. Results for STA-4783 and KU-0063794 are A101D: 78.5; MEL-HO: 96.8; IPC-298: 91.7; LOX IMVI: 82.1; A2058: 86.1; COLO 800: 51.1; 501mel: 44.4; G-361: 74.6. STA-4783 and GW441756 gave A101D: 86.1; MEL-HO: 99.7; IPC-298: 99.0; LOX IMVI: 66.6; A2058: 22.9; COLO 800: 42.7; 501mel: 42.4; G-361: 73.9. Results for ENMD-2076 and TCS401 are A101D: 108; MEL-HO: 103; IPC-298: 105; LOX IMVI: 98.8; A2058: 97.8; COLO 800: 71.8; 501mel: 98.4; G-361: 87.1.

STA-4783 and GSK0660 gave A101D: 73.2; MEL-HO: 96.9; IPC-298: 92.2; LOX IMVI: 94.9; A2058: 59.6; COLO 800: 46.1; 501mel: 43.2; G-361: 76.8. Results for nilutamide and OSI-906 are A101D: 108; MEL-HO: 107; IPC-298: 96.1; LOX IMVI: 90.3; A2058: 105; COLO 800: 66.2; G-361: 107. KU-0063794 and OSI-906 gave A101D: 87.9; MEL-HO: 91.8; IPC-298: 91.3; LOX IMVI: 81.7; A2058: 90.6; COLO 800: 64.4; G-361: 83.9. With KU-0063794 and ENMD-2076 the screen read A101D: 82.3; MEL-HO: 90.6; IPC-298: 90.4; LOX IMVI: 82.2; A2058: 103; COLO 800: 165; 501mel: 96.6; G-361: 88.2.

With GSK0660 and nilutamide the screen read A101D: 120; MEL-HO: 119; IPC-298: 96.5; LOX IMVI: 114; A2058: 112; COLO 800: 69.5; 501mel: 88.5; G-361: 99.9. GW441756 and OSI-906 gave A101D: 99.3; MEL-HO: 97.7; IPC-298: 105; LOX IMVI: 73.9; A2058: 90.9; COLO 800: 58.0; G-361: 104. OSU-03012 and TCS401 gave A101D: 108; MEL-HO: 87.1; IPC-298: 81.2; LOX IMVI: 86.2; A2058: 108; COLO 800: 111; 501mel: 38.1; G-361: 114. With TCS401 and OSI-906 the screen read A101D: 93.7; MEL-HO: 99.6; IPC-298: 86.9; LOX IMVI: 71.7; A2058: 97.4; COLO 800: 53.8; 501mel: 98.7; G-361: 89.5.

For U73122 and GW0742 the values were A101D: 107; MEL-HO: 89.4; IPC-298: 98.7; LOX IMVI: 105; A2058: 95.6; COLO 800: 23.2; 501mel: 117; G-361: 109. For ENMD-2076 and STA-4783 the values were A101D: 97.6; MEL-HO: 88.8; IPC-298: 94.3; LOX IMVI: 95.8; A2058: 77.7; COLO 800: 49.1; G-361: 93.4. For OSI-906 and OSU-03012 the values were A101D: 103; MEL-HO: 94.4; IPC-298: 84.4; LOX IMVI: 56.1; A2058: 92.8; COLO 800: 63.5; G-361: 99.9. OSU-03012 and GSK0660 gave A101D: 113; MEL-HO: 92.7; IPC-298: 95.9; LOX IMVI: 97.2; A2058: 92.1; COLO 800: 89.7; 501mel: 36.8; G-361: 107.

U73122 and OSI-906 gave A101D: 84.2; MEL-HO: 87.8; IPC-298: 94.3; LOX IMVI: 91.6; A2058: 93.4; COLO 800: 57.2; 501mel: 80.1; G-361: 87.3. With GW0742 and nilutamide the screen read A101D: 104; MEL-HO: 84.5; IPC-298: 107; LOX IMVI: 103; A2058: 111; COLO 800: 63.5; 501mel: 91.5; G-361: 98.5. STA-4783 and nilutamide gave A101D: 84.4; MEL-HO: 95.5; IPC-298: 93.1; LOX IMVI: 88.3; A2058: 83.2; COLO 800: 49.7; G-361: 85.3. GSK0660 and GW0742 gave A101D: 104; MEL-HO: 94.6; IPC-298: 102; LOX IMVI: 97.0; A2058: 86.6; COLO 800: 107; 501mel: 98.3; G-361: 91.1.

OSU-03012 and GW441756 gave A101D: 101; MEL-HO: 91.7; IPC-298: 95.9; LOX IMVI: 112; A2058: 96.8; COLO 800: 87.0; 501mel: 38.2; G-361: 105. TCS401 and GW0742 gave A101D: 96.6; MEL-HO: 108; IPC-298: 105; LOX IMVI: 114; A2058: 103; COLO 800: 134; 501mel: 109; G-361: 105.

Repeated from the top, 3 entries:

| Combination | A101D | MEL-HO | IPC-298 | LOX IMVI | A2058 | COLO 800 | 501mel | G-361 |
|---|---|---|---|---|---|---|---|---|
| OSU-03012 and ENMD-2076 | 100 | 94.6 | 90.7 | 35.3 | 110 | 57.6 | - | 110 |
| GW0742 and KU-0063794 | 84.3 | 105 | 93.1 | 66.4 | 101 | 92.1 | 99.1 | 99.5 |
| STA-4783 and GW0742 | 82.3 | 107 | 111 | 123 | 98.0 | 71.3 | 111 | 110 |

Source: doi:10.1371/journal.pone.0140310, primary screening data, rounded.